# Test results: PubChem BioAssay AID493014 (National Center for Advancing Translational Sciences (NCATS), 2011)
# In all, about 340,000 compounds went through this assay and about 170 (0.05%) were called active. Inconclusive means that the source gave no clear call. Such entries were picked first, then a sample of the others. Calls come from the whole dose curve; as a rule, active = well fitted inhibition curve with a large enough effect in the signal ratio, with a control signal flat (not every such curve was filed as active); inconclusive = small, poorly fitted or top-dose-only effect, or effect the other way, or a change in a side signal; inactive = flat fitted curve, though single readings scatter; the % refers to the signal ratio. Potencies beside an inconclusive call are fits to weak or partial responses and may not hold up.
# Test: qHTS Assay to Find Inhibitors of Chronic Active B-Cell Receptor Signaling;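 for activity change, negative = inhibition: plate controls were basal doxycycline-induced cells for no effect and cells given 10 µM MG132 for full effect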
# Conditions: ABC-DLBCL IkBa-CBG/CBR reporter, luminescence ratio (green luciferase fused to IkBa over red control in TMD8 lymphoma cells), 4 h; activity change, negative = inhibition: at 46.1 µM (top of the series) unless noted
# Procedure, shortened: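 TMD8 ABC-DLBCL cells carrying doxycycline-inducible green luciferase fused to IkappaBalpha plus unfused red luciferase were exposed to compounds (up to 46 uM) for 4 hrs at 37C. Activity came from the overlap-corrected green/red luminescence ratio.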
# Potency is the fitted concentration of half-maximal effect.
Structure (SMILES),"activity change, negative = inhibition",Potency
O=C(Nc1ccccc1)C1CC(=O)n2ncnc2N1 (centres undefined),inconclusive: 5.42%,
CCOc1ccc(-c2cc(CCCC(=O)Nc3cccc(OC)c3)no2)cc1,,"inconclusive: 0.461 µM [falling, full curve]"
S=C1NC2(CCS1)Oc1ccccc1C1CC(c3ccccc3)=NN12 (centres undefined),inconclusive: 5.43%,
CN(C)CCCN(C(=O)c1ccc(S(=O)(=O)N2CCCCCC2)cc1)c1nc2cc3c(cc2s1)OCCO3,,"inconclusive: 20.6 µM [falling, partial curve]"
CNC(=S)N(CCc1c(C)[nH]c2ccc(Cl)cc12)Cc1cccs1,inconclusive: -10.5%,
Oc1[nH]c2ccccc2c1/C=N/N1CCCCC1,,"inconclusive: 35.5 µM [falling, single point]"
COc1cccc(NC(=O)c2cnsn2)c1,inconclusive: -6.08%,
CCCC1=C(C(=O)OCC)C(c2ccc(OC)c(C)c2OC)C(C#N)=C(N)O1 (centres undefined),inactive: -1.04%,
O=C(CNC(=O)c1ccccc1Br)N/N=C/c1ccco1,inactive: 0.491%,
COC(=O)c1ccccc1NC1=C/C(=N\S(=O)(=O)c2ccc(C(=O)O)cc2)c2ccccc2C1=O,,"inconclusive: 12.6 µM [falling, partial curve]"
N#Cc1c(-c2ccc(F)cc2)nc(-c2ccccc2)[nH]c1=O,,"inconclusive: 35.5 µM [falling, single point]"
COCCNC(=O)C(c1ccc(C)o1)N(C(=O)c1snc(C(N)=O)c1N)c1ccc(C)cc1 (centres undefined),inconclusive: -0.072%,
Cn1nnnc1SCC(=O)c1ccc2c(c1)OCCO2,inconclusive: 13.9%,
CCC1=C/C(=C/N(C)c2ccccc2)C(=O)S1,inconclusive: 16.5%,
COc1ccc(S(=O)(=O)N(C)Cc2ccc3c(c2)OCCO3)cc1,inconclusive: -1.26%,
COc1cc2c(cc1OC)CN(CC(=O)Nc1ccc3c(c1)OC(F)(F)O3)CC2,inconclusive: 18%,
Cc1ccccc1NS(=O)(=O)c1ccc(C(=O)NCC(C)(C)N2CCOCC2)cc1,inactive: 1.44%,
Brc1cccc2sc(N3CCN(c4ccccc4)CC3)nc12,inconclusive: 7.28%,
Cc1cc(C)n2nc(SCC(=O)NC(=O)c3ccccc3)nc2n1,inactive: -0.429%,
COCc1c(C(=O)Nc2nc(C)cs2)oc2ccccc12,inconclusive: -6.76%,
CCCOc1ccc(Cc2c(O)nc(SC)[nH]c2=O)cc1,inactive: 9.77%,
COc1ccccc1N1CCN(Cc2ccc(OC)c(OC)c2OC)CC1,inactive: 0.496%,
c1csc(-c2nc3c4ccccc4c4ccccc4c3[nH]2)c1,,"inconclusive: 18.4 µM [falling, partial curve, poor fit]"
C=CCc1cc(/C=C2/NC(=O)NC2=O)cc(OCC)c1O,inconclusive: 7.71%,
O=C(Cc1c(F)cccc1Cl)NC1=NCCS1,inconclusive: 6.04%,
Cc1cc(NC(=O)NC2CC(=O)N(c3ccc4c(c3)OCCO4)C2)no1 (centres undefined),,"inconclusive: 12.6 µM [falling, partial curve, poor fit]"
COc1ccccc1N=C1SCC(=O)N1Cc1ccco1,inconclusive: -2.02%,

Structure (SMILES),"activity change, negative = inhibition",Potency
c1ccc(Oc2cc(-n3cccn3)ncn2)cc1,inconclusive: 5.9%,
C=CCN(c1ccccc1)S(=O)(=O)c1cccc(C(=O)OCC(=O)NCCOC)c1,inconclusive: 3.06%,
NCC(O)COc1ccc2c(c1)OCO2 (centres undefined),inconclusive: 3.04%,
COc1ccc(Cl)cc1NC(=O)C/C(C)=N/NC(=O)c1ccc(O)cc1,inconclusive: 278%,
CCc1ccc(C(=O)Nc2ccc3c(c2)n(C)c(=O)n3C)cc1,inconclusive: 2.92%,
CCOC(=O)C1CCCN(Cc2cc(Br)c(OC)cc2OC)C1 (centres undefined),inactive: 5.84%,
O=C(CSc1nnc(CNc2ccccc2)o1)N1CCc2ccccc21,inactive: 3.08%,
O=C(N/N=C/c1cc(Br)c(O)c(Br)c1)c1cc2c(ccc3ccccc32)o1,inconclusive: 16.7%,
Cc1ccc(C)c(NC(=S)NC(C)C(c2ccccc2)N2CCN(C)CC2)c1 (centres undefined),inconclusive: -14.2%,
O=C(O)C1(c2ccccc2)CCN(S(=O)(=O)c2cccc(Cl)c2)CC1,inactive: 5.78%,
COc1ccc(C2(O)CCN(C(=O)NC3CCCCC3)CC2)cc1,inconclusive: -7.31%,
C[C@@]12C(=O)Nc3ccc(F)cc3C(=O)N1[C@H]1c3cc(Cl)ccc3OC[C@@H]1[C@@H]2c1ccccc1,inconclusive: 8.31%,
COc1cc(C(=O)NCCOc2cc(C)ccc2C(C)C)cc(OC)c1OC,,"inconclusive: 20 µM [falling, partial curve, poor fit]"
Cc1ccccc1-n1nc(C)c2cc(C(=O)NCc3cccnc3)sc21,inconclusive: -17%,
COc1cccc(Nc2ncnc3c2cnn3-c2cccc(C)c2)c1,inconclusive: 2.36%,
COc1cccc(C(=O)Nc2nnc(-c3cccs3)s2)c1,,"inconclusive: 25.9 µM [rising, single point]"
Cc1ccc(OCC(=O)N2CCN(S(=O)(=O)c3ccc4c(c3)OCCO4)CC2)c(C)c1,inactive: -5.06%,
COc1cc(CN2CCN(Cc3ccco3)CC2)cc(OC)c1,inconclusive: -8.89%,
N#Cc1cc2c(nc1SCC(=O)Nc1sc3c(c1C#N)CCC3)CCCCC2,inactive: 7.16%,
COC(=O)c1ccc(N=NNc2cccc(Br)c2)cc1,,"inconclusive: 3.66 µM [falling, full curve]"
CN(CCc1ccccn1)C(=S)Nc1ccc(Cl)c(Cl)c1,inconclusive: 0.675%,
CC1CCN(S(=O)(=O)c2ccc(NC(=O)c3ccncc3)cc2)CC1,,"inconclusive: 15.8 µM [falling, single point]"
Cc1ccccc1CSc1nn2c(=O)c(C)nnc2s1,inconclusive: 1.26%,
Clc1ccc(CSc2nnc(-c3sccc3-n3cccc3)o2)cc1,inconclusive: 24%,
CCN(CC(=O)Nc1ccc(N2CCOCC2)cc1)CC(=O)NC(C)(C)C,inconclusive: 8.11%,
CCn1cc2nc(SCC(=O)Nc3ccc(OC)c(OC)c3)n(Cc3ccc(OC)cc3)c(=O)c2n1,,"inconclusive: 11.2 µM [falling, partial curve]"
Oc1ccc(Nc2nc(-c3ccccc3F)nc3ccccc23)cc1,inconclusive: -7.87%,

# Reformatted as tab-separated lines: 10 of the compounds above.
Structure (SMILES)	activity change, negative = inhibition	Potency
O=C(Nc1ccccc1)C1CC(=O)n2ncnc2N1 (centres undefined)	inconclusive: 5.42%	
Cc1ccccc1NS(=O)(=O)c1ccc(C(=O)NCC(C)(C)N2CCOCC2)cc1	inactive: 1.44%	
C=CCc1cc(/C=C2/NC(=O)NC2=O)cc(OCC)c1O	inconclusive: 7.71%	
Cc1cc(NC(=O)NC2CC(=O)N(c3ccc4c(c3)OCCO4)C2)no1 (centres undefined)		inconclusive: 12.6 µM [falling, partial curve, poor fit]
NCC(O)COc1ccc2c(c1)OCO2 (centres undefined)	inconclusive: 3.04%	
O=C(CSc1nnc(CNc2ccccc2)o1)N1CCc2ccccc21	inactive: 3.08%	
O=C(N/N=C/c1cc(Br)c(O)c(Br)c1)c1cc2c(ccc3ccccc32)o1	inconclusive: 16.7%	
COc1ccc(C2(O)CCN(C(=O)NC3CCCCC3)CC2)cc1	inconclusive: -7.31%	
C[C@@]12C(=O)Nc3ccc(F)cc3C(=O)N1[C@H]1c3cc(Cl)ccc3OC[C@@H]1[C@@H]2c1ccccc1	inconclusive: 8.31%	
CN(CCc1ccccn1)C(=S)Nc1ccc(Cl)c(Cl)c1	inconclusive: 0.675%	
